Patent publication US20240327510A1, “DRUG FOR PREVENTING, ALLEVIATING OR TREATING MUCOSAL ADHESION AND USE THEREOF” (SHANGHAI SYNVIDA BIOTECHNOLOGY CO. LTD., priority 2021, published 2024)
Some of these results come from one statement about several compounds together.

Test system: humanized Pear1 mice
Assay: Peritoneal adhesion model, Zuhlke score
Format: in vivo
Conditions: 1.0 mg/kg; control group grade 4

Molecule	Zuhlke score of peritoneal adhesive tissue
LF2: anti-human Pear1 monoclonal antibody; VH SEQ ID NO: 1, VL SEQ ID NO: 16 (antibody, V domains shown) VH: EVQLQQSGPELVKPGASMKISCKASGYSFTGYPMNWVRQSHVKNLEWIGVINPYNGGTSYNQKFKGKATLTVDKSSSTAYIELLSLTSDDSAVYYCARGGVRPFAYWGQGTLVTVSA VL: DIQMTQTSSSFSVSLGDRVTITCKASEDIYNRLAWYQQKPGNAPRLLISGATSLETGVPSRFSGSGSGNDYTLSITSLQTEDVATYYCQQYWSTPTFGAGTKLELQ	1-2
hLF105: humanized anti-human Pear1 antibody; VH SEQ ID NO: 8, VL SEQ ID NO: 22 (antibody, V domains shown) VH: QVQLVQSGAEVKKPGASVKVSCKASGYTFTGYPMNWVRQAPGKRLEWMGVINPYNGGTSYNQKFKGRATLTVDTSASTAYMELSSLRSEDTAVYYCARGGVRPFAYWGQGTLVTVSS VL: DIQMTQSPSSLSASVGDRVTITCKASEDIYNRLAWYQQKPGKAPKLLISGATSLETGVPSRFSGSGSGNDFTLTISSLQPEDFATYYCQQYWSTPTFGQGTKLEIK	1-2
